Measured values taken from paper PMC3033795.

Legend:
[1] = test system: scasRap1-DBD (crude E. coli extract) (Saccharomyces castellii Y320); assay: competition EMSA; details: 2000x competitor; 10 mM Tris-HCl pH 7.5, 7 mM MgCl2, 8% glycerol, 10 fmol probe, 1 ug poly(dI-dC) or 1.5 ug E. coli gDNA/yeast tRNA/salmon sperm DNA mix, 15 min 25 C; gel 1xTBE at 4 C; protein in a lysate after overexpression; protein details: GST fusion (56 kDa, uncleaved in crude extract)
[2] = test system: scasRap1 full-length (Saccharomyces castellii); assay: competition EMSA; details: 1000x competitor, 10 mM Tris-HCl pH 7.5, 7 mM MgCl2, 8% glycerol, 10 fmol probe, 1 ug poly(dI-dC) or 1.5 ug E. coli gDNA/yeast tRNA/salmon sperm DNA mix, 15 min 25 C, gel 1xTBE at 4 C, recombinant protein
[3] = test system: scasRap1-DBD (purified) (Saccharomyces castellii Y320); assay: EMSA; details: 10 mM Tris-HCl pH 7.5, 7 mM MgCl2, 8% glycerol, 10 fmol probe, 1 ug poly(dI-dC) or 1.5 ug E. coli gDNA/yeast tRNA/salmon sperm DNA mix, 15 min 25 C, gel 1xTBE at 4 C, recombinant protein
[4] = test system: scasRap1 full-length (Saccharomyces castellii); assay: EMSA; details: 10 mM Tris-HCl pH 7.5, 7 mM MgCl2, 8% glycerol, 10 fmol probe, 1 ug poly(dI-dC) or 1.5 ug E. coli gDNA/yeast tRNA/salmon sperm DNA mix, 15 min 25 C, gel 1xTBE at 4 C, recombinant protein
[5] = test system: scasRap1-DBD (crude E. coli extract) (Saccharomyces castellii Y320); assay: EMSA; details: crude extract; 10 mM Tris-HCl pH 7.5, 7 mM MgCl2, 8% glycerol, 10 fmol probe, 1 ug poly(dI-dC) or 1.5 ug E. coli gDNA/yeast tRNA/salmon sperm DNA mix, 15 min 25 C; gel 1xTBE at 4 C; protein in a lysate after overexpression; protein details: GST fusion (56 kDa, uncleaved in crude extract); label: 32P 5' forward strand when probe
[6] = label: 32P 5' forward strand when probe

CGGTGTCTGGGTGT (double strand) [Scast14C1]
binding result [1]: binds

GCGTGTCTGGGTGT (double strand) [Scast14C2]
binding result [1]: binds more weakly | binding result [2]: binds more weakly

GGCTCTCTGGGTGT (double strand) [Scast14C3]
binding result [1]: binds more weakly | binding result [2]: binds more weakly

GGGAGTCTGGGTCT (double strand) [Scast14C4]
binding result [1]: binds more weakly | binding result ([2]; most severe group): binds more weakly

GGGTCTCTGGCTGT (double strand) [Scast14C11]
binding result [1]: binds more weakly | binding result ([2]; most severe group): binds more weakly

GGGTCTCTGGGTGT (double strand) [Scast14C5]
binding result [1]: binds more weakly | binding result ([2]; most severe group): binds more weakly

GGGTCTGTGGGTGT (double strand) [Scast14C7]
binding result [1]: binds | binding result [2]: binds

GGGTGACTGGGTGT (double strand) [Scast14C6]
binding result [1]: binds more weakly | binding result [2]: binds more weakly

GGGTGTCAGGGTCT (double strand) [Scast14C8]
binding result [1]: binds more weakly | binding result ([2]; most severe group): binds more weakly

GGGTGTCTCGGTGT (double strand) [Scast14C9]
binding result [1]: binds more weakly | binding result ([2]; most severe group): binds more weakly

GGGTGTCTGCGTGT (double strand) [Scast14C10]
binding result [1]: binds more weakly | binding result ([2]; most severe group): binds more weakly

GGGTGTCTGGG (double strand) [Scast11C]
binding result ([3]; label: 32P 5' forward strand): no binding | binding result ([4]; label: 32P 5' forward strand): no binding

GGGTGTCTGGGACT (double strand) [Scast14C12]
binding result [1]: binds more weakly

GGGTGTCTGGGT (double strand) [Scast12C (MBS)]
binding result ([3]; label: 32P 5' forward strand): binds | binding result ([4]; label: 32P 5' forward strand): binds

GGGTGTCTGGGTCT (double strand) [Scast14C13]
binding result [1]: binds more weakly

GGGTGTCTGGGTGA (double strand) [Scast14C14]
binding result [1]: binds

GGGTGTCTGGGTGT (double strand) [Scast14C]
binding result [3, 6]: binds | binding result [4, 6]: binds

GGTGTCTGGGTG (double strand) [Scast12F]
binding result ([3]; label: 32P 5' forward strand): no binding | binding result ([4]; label: 32P 5' forward strand): no binding

GGTGTCTGGGTGTCTG (double strand) [Scast16F]
binding result ([3]; label: 32P 5' forward strand): binds | binding result ([4]; label: 32P 5' forward strand): binds

GTGTCTGGGTGTCTGGGTG (double strand) [Scast19F]
binding result [5]: binds | binding result [3, 6]: binds | binding result [4, 6]: binds

Construct, isoform or probe ends are uncertain for at least one entry. For some of these results: Negatives hold for the conditions tested. For some of these results: A weaker result is weaker than the reference pair of the same experiment. For some of these results: At least one result comes from cells or an extract, where the contact may be indirect. For some of these results: At least one verdict was read from the data and is not stated in words by the source.
